Data published in the supplement of paper PMC10849652.
Some of the results follow.

By UniProt entry, the sequences of proteins in these tests, tags left out. Where a name states a change or a piece, a line headed by the entry shows the natural chain unless it says otherwise.
UniProt Q6ZNB6: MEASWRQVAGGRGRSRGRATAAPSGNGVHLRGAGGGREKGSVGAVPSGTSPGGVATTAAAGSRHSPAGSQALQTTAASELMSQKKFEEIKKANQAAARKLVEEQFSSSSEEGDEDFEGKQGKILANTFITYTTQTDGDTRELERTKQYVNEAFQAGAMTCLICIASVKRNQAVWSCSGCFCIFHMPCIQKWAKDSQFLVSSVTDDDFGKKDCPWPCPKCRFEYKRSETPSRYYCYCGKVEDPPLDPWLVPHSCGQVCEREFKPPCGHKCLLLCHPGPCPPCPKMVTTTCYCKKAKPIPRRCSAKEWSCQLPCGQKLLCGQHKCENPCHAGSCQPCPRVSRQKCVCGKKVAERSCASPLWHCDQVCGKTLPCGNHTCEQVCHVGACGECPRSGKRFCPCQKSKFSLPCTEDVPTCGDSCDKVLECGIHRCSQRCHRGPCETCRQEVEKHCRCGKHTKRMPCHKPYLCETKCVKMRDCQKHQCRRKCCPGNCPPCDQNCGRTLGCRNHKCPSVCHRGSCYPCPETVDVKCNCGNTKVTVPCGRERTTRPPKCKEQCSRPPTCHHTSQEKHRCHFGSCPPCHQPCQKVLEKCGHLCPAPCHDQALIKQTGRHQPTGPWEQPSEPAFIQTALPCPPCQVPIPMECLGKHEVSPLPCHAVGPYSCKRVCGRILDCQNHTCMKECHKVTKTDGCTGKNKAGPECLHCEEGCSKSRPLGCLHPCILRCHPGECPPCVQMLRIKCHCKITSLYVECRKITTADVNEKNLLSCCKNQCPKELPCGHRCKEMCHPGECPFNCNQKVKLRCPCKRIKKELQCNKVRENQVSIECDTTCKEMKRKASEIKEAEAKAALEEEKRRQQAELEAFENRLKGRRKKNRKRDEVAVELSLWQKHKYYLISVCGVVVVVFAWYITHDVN
UniProt O43678, whole entry, looked up: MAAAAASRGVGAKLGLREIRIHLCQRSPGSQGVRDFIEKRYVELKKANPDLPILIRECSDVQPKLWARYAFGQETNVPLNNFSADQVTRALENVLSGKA
UniProt Q9NX14, whole entry, looked up: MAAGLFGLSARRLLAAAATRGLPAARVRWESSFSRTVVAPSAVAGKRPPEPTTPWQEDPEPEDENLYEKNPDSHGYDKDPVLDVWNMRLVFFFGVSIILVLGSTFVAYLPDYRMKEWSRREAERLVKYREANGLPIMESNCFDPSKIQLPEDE
UniProt Q92692, whole entry, looked up: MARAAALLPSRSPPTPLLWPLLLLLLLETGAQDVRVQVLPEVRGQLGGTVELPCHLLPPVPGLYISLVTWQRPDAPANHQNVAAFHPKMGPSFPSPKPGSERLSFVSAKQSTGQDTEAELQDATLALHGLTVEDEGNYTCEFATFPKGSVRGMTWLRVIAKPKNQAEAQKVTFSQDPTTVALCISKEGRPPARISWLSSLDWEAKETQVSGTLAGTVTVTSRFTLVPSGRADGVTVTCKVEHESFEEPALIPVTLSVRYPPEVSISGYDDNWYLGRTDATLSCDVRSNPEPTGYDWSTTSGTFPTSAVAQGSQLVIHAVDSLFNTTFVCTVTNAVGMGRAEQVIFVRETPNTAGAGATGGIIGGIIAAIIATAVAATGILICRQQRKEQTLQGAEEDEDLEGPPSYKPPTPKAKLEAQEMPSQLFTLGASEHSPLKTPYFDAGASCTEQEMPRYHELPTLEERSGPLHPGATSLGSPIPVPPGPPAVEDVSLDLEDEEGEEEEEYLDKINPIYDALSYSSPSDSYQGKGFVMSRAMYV
UniProt P51970, whole entry, looked up: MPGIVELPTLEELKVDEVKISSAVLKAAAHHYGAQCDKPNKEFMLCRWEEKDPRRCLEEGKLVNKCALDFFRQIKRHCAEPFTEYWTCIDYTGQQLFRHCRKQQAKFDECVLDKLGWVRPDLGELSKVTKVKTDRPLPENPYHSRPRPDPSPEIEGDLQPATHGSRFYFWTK
UniProt Q8NCF5: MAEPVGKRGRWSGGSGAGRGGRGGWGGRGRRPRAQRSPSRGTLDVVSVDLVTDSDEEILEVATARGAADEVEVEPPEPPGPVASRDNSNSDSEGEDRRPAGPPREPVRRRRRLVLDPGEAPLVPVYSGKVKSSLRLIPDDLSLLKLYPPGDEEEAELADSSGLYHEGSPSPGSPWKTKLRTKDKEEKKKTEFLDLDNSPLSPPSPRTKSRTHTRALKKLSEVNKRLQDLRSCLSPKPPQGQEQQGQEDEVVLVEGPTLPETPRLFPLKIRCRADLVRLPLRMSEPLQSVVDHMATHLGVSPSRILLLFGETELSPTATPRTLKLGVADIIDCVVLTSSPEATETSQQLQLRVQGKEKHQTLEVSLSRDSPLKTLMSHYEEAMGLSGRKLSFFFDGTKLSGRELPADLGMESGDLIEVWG
UniProt O95644: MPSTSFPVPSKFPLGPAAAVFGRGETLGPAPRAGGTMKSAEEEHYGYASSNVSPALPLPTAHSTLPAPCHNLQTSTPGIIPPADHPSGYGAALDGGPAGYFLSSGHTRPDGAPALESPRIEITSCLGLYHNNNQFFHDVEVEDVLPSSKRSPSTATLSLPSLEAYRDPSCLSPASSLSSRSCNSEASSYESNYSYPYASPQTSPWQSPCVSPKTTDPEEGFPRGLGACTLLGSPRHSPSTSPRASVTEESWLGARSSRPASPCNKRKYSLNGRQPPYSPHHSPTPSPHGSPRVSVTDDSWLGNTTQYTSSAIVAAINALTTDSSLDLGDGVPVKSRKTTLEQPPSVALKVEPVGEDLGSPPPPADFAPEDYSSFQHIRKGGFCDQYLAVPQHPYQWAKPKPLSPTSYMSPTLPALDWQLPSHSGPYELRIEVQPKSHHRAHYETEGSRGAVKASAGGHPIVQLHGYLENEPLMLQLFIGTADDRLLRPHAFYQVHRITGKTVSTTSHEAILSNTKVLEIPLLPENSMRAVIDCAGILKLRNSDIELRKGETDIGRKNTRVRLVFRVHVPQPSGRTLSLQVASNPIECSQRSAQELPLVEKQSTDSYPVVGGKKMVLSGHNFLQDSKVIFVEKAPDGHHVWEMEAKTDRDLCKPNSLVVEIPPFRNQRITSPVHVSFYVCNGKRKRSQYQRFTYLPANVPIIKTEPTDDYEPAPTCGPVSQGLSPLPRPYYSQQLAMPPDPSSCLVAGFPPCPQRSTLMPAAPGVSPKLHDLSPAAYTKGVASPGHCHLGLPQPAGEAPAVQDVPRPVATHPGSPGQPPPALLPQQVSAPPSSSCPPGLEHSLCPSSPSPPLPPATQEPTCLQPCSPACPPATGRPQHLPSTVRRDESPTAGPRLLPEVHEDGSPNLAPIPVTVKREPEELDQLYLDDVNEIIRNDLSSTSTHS
UniProt Q8N8Q9: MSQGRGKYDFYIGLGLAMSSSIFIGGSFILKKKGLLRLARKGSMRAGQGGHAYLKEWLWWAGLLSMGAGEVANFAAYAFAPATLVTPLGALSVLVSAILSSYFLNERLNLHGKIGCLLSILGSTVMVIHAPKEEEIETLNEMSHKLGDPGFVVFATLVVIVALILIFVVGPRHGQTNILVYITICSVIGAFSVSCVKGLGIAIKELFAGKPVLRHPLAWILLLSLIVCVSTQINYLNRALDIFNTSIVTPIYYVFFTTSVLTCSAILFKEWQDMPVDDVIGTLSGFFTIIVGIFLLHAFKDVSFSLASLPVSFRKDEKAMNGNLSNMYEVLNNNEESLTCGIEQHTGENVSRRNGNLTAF
UniProt P18615, whole entry, looked up: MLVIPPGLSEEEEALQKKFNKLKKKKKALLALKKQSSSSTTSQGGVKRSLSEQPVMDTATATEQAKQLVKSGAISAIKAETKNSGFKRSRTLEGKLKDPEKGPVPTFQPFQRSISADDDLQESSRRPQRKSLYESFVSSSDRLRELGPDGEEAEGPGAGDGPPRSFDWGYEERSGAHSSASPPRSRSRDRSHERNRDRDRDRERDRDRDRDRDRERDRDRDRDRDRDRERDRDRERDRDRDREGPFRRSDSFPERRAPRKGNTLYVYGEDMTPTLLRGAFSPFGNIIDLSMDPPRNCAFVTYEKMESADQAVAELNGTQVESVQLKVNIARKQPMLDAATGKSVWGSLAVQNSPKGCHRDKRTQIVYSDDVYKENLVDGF
UniProt Q9NVZ3: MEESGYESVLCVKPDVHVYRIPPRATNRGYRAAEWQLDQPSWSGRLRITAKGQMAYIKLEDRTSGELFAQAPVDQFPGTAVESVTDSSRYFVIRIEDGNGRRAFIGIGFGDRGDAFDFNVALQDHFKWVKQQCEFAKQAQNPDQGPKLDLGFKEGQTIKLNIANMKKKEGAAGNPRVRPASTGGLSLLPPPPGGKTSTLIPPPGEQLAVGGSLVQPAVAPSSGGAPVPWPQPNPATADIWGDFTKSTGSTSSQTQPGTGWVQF
UniProt Q12857, whole entry, looked up: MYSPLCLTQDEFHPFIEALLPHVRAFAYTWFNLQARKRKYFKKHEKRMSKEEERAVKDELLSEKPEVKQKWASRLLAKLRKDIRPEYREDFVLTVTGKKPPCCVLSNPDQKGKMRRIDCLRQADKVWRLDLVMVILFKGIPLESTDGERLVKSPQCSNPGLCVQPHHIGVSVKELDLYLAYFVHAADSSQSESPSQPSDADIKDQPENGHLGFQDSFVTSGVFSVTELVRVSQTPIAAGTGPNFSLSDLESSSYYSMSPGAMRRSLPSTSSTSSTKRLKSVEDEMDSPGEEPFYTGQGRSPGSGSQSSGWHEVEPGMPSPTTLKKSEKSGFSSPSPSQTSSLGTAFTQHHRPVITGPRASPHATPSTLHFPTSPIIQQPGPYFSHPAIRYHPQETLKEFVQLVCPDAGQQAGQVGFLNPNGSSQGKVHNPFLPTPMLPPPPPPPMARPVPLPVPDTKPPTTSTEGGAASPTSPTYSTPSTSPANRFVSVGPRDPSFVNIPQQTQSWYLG
UniProt Q5TEU4: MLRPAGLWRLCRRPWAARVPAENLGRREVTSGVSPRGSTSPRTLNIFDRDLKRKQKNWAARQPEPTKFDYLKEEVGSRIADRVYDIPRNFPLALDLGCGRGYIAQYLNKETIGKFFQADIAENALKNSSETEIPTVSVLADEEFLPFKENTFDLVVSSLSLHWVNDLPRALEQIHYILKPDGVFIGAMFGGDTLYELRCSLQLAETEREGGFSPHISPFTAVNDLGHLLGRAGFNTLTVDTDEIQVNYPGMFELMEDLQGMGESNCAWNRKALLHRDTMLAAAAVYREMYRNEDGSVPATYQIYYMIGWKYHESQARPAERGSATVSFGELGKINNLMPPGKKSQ
UniProt P23511, whole entry, looked up: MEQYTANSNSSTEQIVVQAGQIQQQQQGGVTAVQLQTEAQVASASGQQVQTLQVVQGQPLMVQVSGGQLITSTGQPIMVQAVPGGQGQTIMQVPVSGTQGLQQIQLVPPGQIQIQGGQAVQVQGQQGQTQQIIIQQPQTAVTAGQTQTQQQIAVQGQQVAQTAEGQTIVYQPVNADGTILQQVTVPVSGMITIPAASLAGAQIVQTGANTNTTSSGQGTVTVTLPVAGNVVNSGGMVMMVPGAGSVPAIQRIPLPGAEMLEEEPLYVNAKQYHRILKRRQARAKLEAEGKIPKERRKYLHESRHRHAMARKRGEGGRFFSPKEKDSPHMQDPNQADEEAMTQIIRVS
UniProt O60524: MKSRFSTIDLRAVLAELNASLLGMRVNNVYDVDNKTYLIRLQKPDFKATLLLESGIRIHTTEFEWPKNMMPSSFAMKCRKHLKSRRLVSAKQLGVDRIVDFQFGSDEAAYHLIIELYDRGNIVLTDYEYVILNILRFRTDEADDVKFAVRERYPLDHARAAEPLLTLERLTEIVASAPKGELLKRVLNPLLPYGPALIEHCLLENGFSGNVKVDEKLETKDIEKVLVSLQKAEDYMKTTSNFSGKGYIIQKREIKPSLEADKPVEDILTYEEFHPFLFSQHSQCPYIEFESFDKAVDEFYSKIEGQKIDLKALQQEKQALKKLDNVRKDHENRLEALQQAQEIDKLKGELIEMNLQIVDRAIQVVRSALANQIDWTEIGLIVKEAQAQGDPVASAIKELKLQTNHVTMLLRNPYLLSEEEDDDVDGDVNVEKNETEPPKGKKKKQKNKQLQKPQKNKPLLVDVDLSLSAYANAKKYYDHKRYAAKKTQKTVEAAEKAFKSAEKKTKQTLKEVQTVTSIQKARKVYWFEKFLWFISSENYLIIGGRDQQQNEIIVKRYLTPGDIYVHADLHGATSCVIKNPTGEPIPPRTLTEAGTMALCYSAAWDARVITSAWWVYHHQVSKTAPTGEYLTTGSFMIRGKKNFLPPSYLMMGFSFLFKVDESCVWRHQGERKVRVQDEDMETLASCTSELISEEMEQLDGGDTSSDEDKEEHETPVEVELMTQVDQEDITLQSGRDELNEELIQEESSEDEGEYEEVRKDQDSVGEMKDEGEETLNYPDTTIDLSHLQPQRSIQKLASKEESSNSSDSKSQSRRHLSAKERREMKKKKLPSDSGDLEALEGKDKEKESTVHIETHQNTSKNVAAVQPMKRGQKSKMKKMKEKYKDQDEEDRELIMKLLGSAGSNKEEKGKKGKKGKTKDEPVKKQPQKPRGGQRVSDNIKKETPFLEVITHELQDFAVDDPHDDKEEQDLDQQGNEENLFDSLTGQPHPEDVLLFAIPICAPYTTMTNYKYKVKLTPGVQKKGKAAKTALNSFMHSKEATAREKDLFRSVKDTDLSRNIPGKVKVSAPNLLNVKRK

Columns and labels:
Assay in all cases: log2 fold change, soluble protein after heating vs DMSO (PISA); higher = thermal stabilisation; K562 lysate, 10 uM; active = over 0.2 and 3.5 SD of the protein, either way, in both replicates (recomputed)
[1] = compound: CS(=O)(=O)CCNCc1ccc(-c2ccc3ncnc(Nc4ccc(OCc5cccc(F)c5)c(Cl)c4)c3c2)o1 [lapatinib]
In short: (§1)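 Thermal stability, expressed as log-two fold change relative to solvent controls, is given from duplicates. Crude K562 extract in PBS pH 7.4 with 1 mM MgCl2, at 1 mg/mL protein, was treated with 10 μM compound for 30 min and heated in aliquots for 3 min across 48°C-58°C. After pooling, adjustment to 0.5% NP-40 at 4°C and centrifugation at 21,000xg for 90 min, supernatant protein was measured by TMTpro 16plex LC-MS/MS with channel sums equalised.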

[2] = compound: CS(=O)(=O)N1CCN(Cc2cc3nc(-c4cccc5[nH]ncc45)nc(N4CCOCC4)c3s2)CC1 [pictilisib]
In short: as §1

[3] = compound: C[C@@H](Oc1cc(-c2cnn(C3CCNCC3)c2)cnc1N)c1c(Cl)ccc(F)c1Cl [crizotinib]
In short: as §1

[4] = compound: C[C@H](C1=CC=C(C=C1)C(=O)NC2=C3C=CNC3=NC=C2)N
In short: as §1

[5] = compound: C[C@H](Nc1ncnc2nc[nH]c12)c1cc2cccc(Cl)c2c(=O)n1-c1ccccc1 [duvelisib]
In short: as §1

[6] = compound: Cc1cc(Nc2cc(CN3CCOCC3)c3nc(C)c(Cc4ccc(Cl)cc4F)n3n2)n[nH]1 [gandotinib]
In short: as §1

[7] = compound: Cc1cc(Nc2cc(N3CCN(C)CC3)nc(Sc3ccc(NC(=O)C4CC4)cc3)n2)n[nH]1 [tozasertib]
In short: as §1

[8] = compound: Cc1ccc(-n2nc(C(C)(C)C)cc2NC(=O)Nc2ccc(OCCN3CCOCC3)c3ccccc23)cc1 [doramapimod]
In short: as §1

[9] = compound: Cc1ccc(NC(=O)c2ccc(CN3CC[C@H](N(C)C)C3)c(C(F)(F)F)c2)cc1Nc1nccc(-c2cncnc2)n1 [bafetinib]
In short: as §1

[10] = compound: Cc1cccc(CC(=O)N2CCc3c2ccc(-c2cn(C)c4ncnc(N)c24)c3F)n1
In short: as §1

[11] = compound: Cc1cn(-c2cc(NC(=O)c3ccc(C)c(Nc4nccc(-c5cccnc5)n4)c3)cc(C(F)(F)F)c2)cn1 [nilotinib]
In short: as §1

[12] = compound: Cc1nc(Nc2n[nH]c3c2CN(C(=O)N[C@H](CN(C)C)c2ccccc2)C3(C)C)c2sccc2n1
In short: as §1

[13] = compound: Cc1nc(Nc2ncc(C(=O)Nc3c(C)cccc3Cl)s2)cc(N2CCN(CCO)CC2)n1 [dasatinib]
In short: as §1

[14] = compound: Cc1ncc(-c2ccnc(Nc3ccc(S(C)(=O)=O)cc3)n2)n1C(C)C
In short: as §1

[15] = compound: Cn1cc(-c2ccc3c(c2)CCN3C(=O)Cc2cccc(C(F)(F)F)c2)c2c(N)ncnc21
In short: as §1

[16] = compound: Cn1cc(CNCC2CCN(c3ncc(C(=O)NO)cn3)CC2)c2ccccc21 [quisinostat]
In short: as §1

[17] = compound: Cn1cncc1[C@@](N)(c1ccc(Cl)cc1)c1ccc2c(c1)c(-c1cccc(Cl)c1)cc(=O)n2C [tipifarnib]
In short: as §1

[18] = compound: NC(=O)Nc1cc(-c2cccc(F)c2)sc1C(=O)N[C@H]1CCCNC1
In short: as §1

[19] = compound: NC(=O)c1cnc(N[C@@H]2CCCC[C@@H]2N)nc1Nc1cccc(-n2nccn2)c1
In short: as §1

[20] = compound: NC1(c2ccc(-c3nc4ccn5c(=O)[nH]nc5c4cc3-c3ccccc3)cc2)CCC1
In short: as §1

| Target | log2 fold change [1] | log2 fold change [2] | log2 fold change [3] | log2 fold change [4] | log2 fold change [5] | log2 fold change [6] | log2 fold change [7] | log2 fold change [8] | log2 fold change [9] | log2 fold change [10] | log2 fold change [11] | log2 fold change [12] | log2 fold change [13] | log2 fold change [14] | log2 fold change [15] | log2 fold change [16] | log2 fold change [17] | log2 fold change [18] | log2 fold change [19] | log2 fold change [20] |
| --- | --- | --- | --- | --- | --- | --- | --- | --- | --- | --- | --- | --- | --- | --- | --- | --- | --- | --- | --- | --- |
| NFXL1 (UniProt Q6ZNB6) | inactive: -0.011 | inactive: -0.068 | inactive: 0.042 | inactive: -0.069 | inactive: 0.048 | inactive: -0.009 | inactive: -0.011 | inactive: 0.009 | inactive: 0.127 | inactive: 0.107 | inactive: -0.012 | inactive: 0.038 | inactive: -0.065 | inactive: 0.074 | inactive: -0.074 | inactive: 0.143 | inactive: -0.055 | inactive: -0.087 | inactive: -0.025 | inactive: 0.022 |
| NDUFA2 (UniProt O43678) | inactive: 0.016 | inactive: 0.012 | inactive: 0.025 | inactive: 0.048 | inactive: -0.044 | inactive: 0.015 | inactive: 0.051 | inactive: 0.006 | inactive: -0.033 | inactive: -0.046 | inactive: 0.073 | inactive: 0.005 | inactive: -0.012 | inactive: -0.013 | inactive: -0.04 | inactive: 0.092 | inactive: 0.007 | inactive: -0.048 | inactive: 0.019 | inactive: 0.031 |
| NFKB2 (UniProt Q00653) | inactive: 0.03 | inactive: -0.001 | inactive: -0.053 | inactive: -0.038 | inactive: -0.036 | inactive: 0.013 | inactive: 0.026 | inactive: 0.031 | inactive: -0.017 | inactive: 0.027 | inactive: 0.009 | inactive: -0.005 | inactive: 0.005 | inactive: 0.033 | inactive: -0.001 | inactive: -0.095 | inactive: -0.04 | inactive: 0.046 | inactive: 0.029 | inactive: -0.021 |
| NDUFB11 isoform 2 (UniProt Q9NX14) | inactive: -0.006 | inactive: -0.008 | inactive: 0.028 | inactive: 0.057 | inactive: 0.017 | inactive: -0.027 | inactive: 0.025 | inactive: -0.032 | inactive: -0.008 | inactive: 0.002 | inactive: 0.096 | inactive: -0.014 | inactive: -0.049 | inactive: 0.115 | inactive: -0.003 | inactive: 0.043 | inactive: 0.03 | inactive: -0.045 | inactive: -0.003 | inactive: -0.029 |
| NECTIN2 (UniProt Q92692) | inactive: -0.05 | inactive: -0.058 | inactive: 0.019 | inactive: -0.066 | inactive: 0.041 | inactive: 0.029 | inactive: -0.015 | inactive: -0.027 | inactive: 0.038 | inactive: -0.044 | inactive: 0.032 | inactive: -0.03 | inactive: -0.029 | inactive: 0.014 | inactive: -0.002 | inactive: -0.009 | inactive: 0.023 | inactive: -0.021 | inactive: 0.015 | inactive: 0.038 |
| NDUFA8 (UniProt P51970) | inactive: -0.029 | inactive: -0.017 | inactive: 0.011 | inactive: 0.129 | inactive: 0.041 | inactive: -0.053 | inactive: 0.097 | inactive: 0.01 | inactive: 0.059 | inactive: -0.09 | inactive: -0.179 | inactive: -0.086 | inactive: 0.017 | inactive: -0.096 | inactive: 0.095 | inactive: -0.052 | inactive: -0.01 | inactive: -0.023 | inactive: -0.007 | inactive: 0.028 |
| NFATC2IP (UniProt Q8NCF5) | inactive: 0.002 | inactive: -0.091 | inactive: 0.027 | inactive: 0.059 | inactive: -0.067 | inactive: 0.039 | inactive: -0.035 | inactive: 0.001 | inactive: -0.169 | inactive: -0.018 | inactive: 0.027 | inactive: -0.015 | inactive: 0.071 | inactive: -0.055 | inactive: 0.005 | inactive: 0.019 | inactive: 0.061 | inactive: 0 | inactive: -0.015 | inactive: 0.03 |
| NFATC1 (UniProt O95644) | inactive: -0.003 | inactive: -0.088 | inactive: -0.111 | inactive: -0.136 | inactive: 0.007 | inactive: 0.132 | inactive: -0.002 | inactive: 0.017 | inactive: -0.043 | inactive: 0.179 | inactive: -0.048 | inactive: -0.055 | inactive: 0.014 | inactive: 0.014 | inactive: 0.037 | inactive: -0.097 | inactive: 0.006 | inactive: 0.042 | inactive: -0.002 | inactive: -0.058 |
| NIPA2 (UniProt Q8N8Q9) | inactive: 0.041 | inactive: -0.029 | inactive: -0.044 | inactive: -0.162 | inactive: -0.008 | inactive: 0.157 | inactive: -0.15 | inactive: 0.035 | inactive: 0.229 | inactive: 0.072 | inactive: 0.034 | inactive: -0.092 | inactive: 0.024 | inactive: 0.109 | inactive: -0.24 | inactive: -0.053 | inactive: -0.019 | inactive: 0.005 | inactive: -0.065 | inactive: 0.05 |
| NELFE (UniProt P18615) | inactive: 0 | inactive: 0.018 | inactive: -0.014 | inactive: -0.036 | inactive: -0.003 | inactive: 0.002 | inactive: 0.01 | inactive: 0.001 | inactive: -0.003 | inactive: 0.058 | inactive: -0.013 | inactive: -0.01 | inactive: 0.003 | inactive: 0.01 | inactive: -0.015 | inactive: -0.068 | inactive: -0.013 | inactive: -0.004 | inactive: 0.002 | inactive: 0.022 |
| NECAP2 (UniProt Q9NVZ3) | inactive: -0.007 | inactive: -0.042 | inactive: 0.036 | inactive: 0.047 | inactive: -0.023 | inactive: -0.038 | inactive: -0.028 | inactive: -0.015 | inactive: 0.041 | inactive: -0.024 | inactive: 0.029 | inactive: -0.016 | inactive: 0.05 | inactive: 0.029 | inactive: -0.001 | inactive: -0.022 | inactive: 0.007 | inactive: 0.003 | inactive: -0.012 | inactive: 0.028 |
| NFIA isoform 4 (UniProt Q12857) | inactive: 0.052 | inactive: 0.009 | inactive: 0.043 | inactive: -0.113 | inactive: 0.027 | inactive: 0.225 | – | inactive: 0.017 | inactive: -0.082 | inactive: 0.111 | inactive: -0.033 | inactive: 0.059 | inactive: 0.004 | inactive: 0.016 | inactive: 0.118 | inactive: 0.024 | inactive: -0.066 | inactive: 0.037 | inactive: 0.078 | inactive: 0.009 |
| NDUFAF5 (UniProt Q5TEU4) | inactive: 0.002 | inactive: -0.02 | inactive: -0.044 | inactive: -0.212 | active: -0.286 | inactive: 0.026 | inactive: 0.068 | inactive: 0.129 | inactive: -0.019 | inactive: -0.061 | – | – | inactive: 0.02 | – | inactive: -0.061 | inactive: -0.078 | – | inactive: 0.114 | inactive: -0.034 | inactive: -0.042 |
| NFYA (UniProt P23511) | inactive: 0.067 | inactive: -0.141 | inactive: 0.027 | inactive: 0.027 | inactive: -0.003 | inactive: 0.005 | inactive: -0.053 | inactive: -0.029 | inactive: 0.125 | inactive: -0.047 | – | – | inactive: -0.066 | – | inactive: 0 | inactive: 0.027 | – | inactive: -0.065 | inactive: -0.161 | inactive: 0.027 |
| NEMF (UniProt O60524) | inactive: -0.006 | inactive: -0.046 | inactive: -0.028 | inactive: 0.035 | inactive: 0.001 | inactive: -0.018 | inactive: -0.012 | inactive: 0.001 | inactive: -0.01 | inactive: 0.042 | inactive: -0.001 | inactive: -0.003 | inactive: -0.006 | inactive: -0.032 | inactive: 0.011 | inactive: -0.026 | inactive: 0.008 | inactive: 0.021 | inactive: -0.018 | inactive: -0.021 |
| NHEJ1 (UniProt Q9H9Q4) | inactive: 0.005 | inactive: -0.03 | inactive: 0.014 | inactive: -0.003 | inactive: 0.057 | inactive: 0.053 | inactive: -0.019 | inactive: 0.03 | inactive: -0.014 | inactive: 0 | inactive: 0.05 | inactive: 0.048 | inactive: -0.007 | inactive: 0.108 | inactive: -0.076 | inactive: -0.045 | inactive: -0.004 | inactive: 0.049 | inactive: -0.025 | inactive: -0.009 |
